From patent US20190324022

The chains behind the UniProt entries cited, without tags or fusion partners. Residues count along the entry.
UniProt P01375, 77-233: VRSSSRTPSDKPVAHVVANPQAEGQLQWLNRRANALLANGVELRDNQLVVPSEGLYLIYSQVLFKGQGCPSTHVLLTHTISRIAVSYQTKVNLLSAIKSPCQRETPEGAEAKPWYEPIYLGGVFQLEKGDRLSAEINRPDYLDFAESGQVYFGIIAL

Target: TNF-alpha (Homo sapiens) (UniProt P01375)
Assay: flow cytometry
Conditions: 5'-amino, coupled to magnetic particles; in 10% human serum binding virtually disappeared, no meaningful KD; purified recombinant protein; protein details: biotinylated, R&D Systems; single-stranded DNA

Question: Does “ATCCAGAGTGACGCAGCAGGTTAAGGTGTAGGTCCGGGTGGGGGGGTGGGTTGGGGGACTGGTGGACACGGTGGCTTAGT [B01]” bind?
Answer: Result: no binding

Negatives hold for the conditions tested.
